Test results taken from doi:10.1101/2022.07.11.499617.
Changes are numbered by the printed parent chain. Results are given in words; binding and its absence hold for the method and conditions named. For some of these results: In cells and extracts the contact can be indirect. Some binding calls cover weakened binding; strength is not graded here. Sequences can lack the tags named with a protein. Values belong to the binder of their own block, whether it stands above or below them.

Assays:
[1] = biological target: T1, MYC-tagged PUB30 (PUB30-MYC), wild type (Arabidopsis thaliana) (UniProt Q058P4); experiment: co-IP
T1 sequence: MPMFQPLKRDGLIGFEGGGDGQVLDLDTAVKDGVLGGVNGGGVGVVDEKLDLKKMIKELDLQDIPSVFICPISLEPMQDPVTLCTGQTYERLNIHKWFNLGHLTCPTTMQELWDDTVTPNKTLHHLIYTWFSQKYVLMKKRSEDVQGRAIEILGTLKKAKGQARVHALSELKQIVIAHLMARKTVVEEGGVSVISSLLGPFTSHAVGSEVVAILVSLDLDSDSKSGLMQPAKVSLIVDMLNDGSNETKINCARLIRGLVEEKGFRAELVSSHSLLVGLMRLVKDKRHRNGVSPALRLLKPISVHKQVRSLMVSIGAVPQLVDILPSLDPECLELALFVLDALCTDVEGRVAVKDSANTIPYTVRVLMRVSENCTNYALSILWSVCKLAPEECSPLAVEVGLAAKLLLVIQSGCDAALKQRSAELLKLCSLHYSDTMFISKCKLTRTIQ

[2] = biological target: T2, PUB31_(T151D)-MYC (phosphomimetic) (Arabidopsis thaliana) (UniProt Q9FHN9); experiment: co-IP
T2 sequence: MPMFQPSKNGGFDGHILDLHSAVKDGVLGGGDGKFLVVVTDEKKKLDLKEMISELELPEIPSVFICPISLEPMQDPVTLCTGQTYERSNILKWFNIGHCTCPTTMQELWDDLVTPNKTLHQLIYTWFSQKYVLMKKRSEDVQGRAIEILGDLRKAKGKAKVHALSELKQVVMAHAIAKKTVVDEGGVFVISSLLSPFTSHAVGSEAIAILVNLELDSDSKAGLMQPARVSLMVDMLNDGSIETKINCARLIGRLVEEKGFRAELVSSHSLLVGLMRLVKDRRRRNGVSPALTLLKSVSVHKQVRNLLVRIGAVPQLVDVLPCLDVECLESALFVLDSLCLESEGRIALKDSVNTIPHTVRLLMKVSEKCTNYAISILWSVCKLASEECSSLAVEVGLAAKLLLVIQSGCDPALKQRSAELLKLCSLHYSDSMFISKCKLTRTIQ

[3] = biological target: T3, PUB30_(T155D)-MYC (phosphomimetic) (Arabidopsis thaliana) (UniProt Q058P4); experiment: co-IP
T3 sequence: T1 sequence with T155D

[4] = biological target: T4, MYC-tagged PUB31 (PUB31-MYC), wild type (Arabidopsis thaliana) (UniProt Q9FHN9); experiment: co-IP
T4 sequence: T2 sequence with D151T

[5] = biological target: T5, YODA (YDA), two-hybrid fusion (Arabidopsis thaliana) (UniProt Q9CAD5); experiment: two-hybrid
T5 sequence: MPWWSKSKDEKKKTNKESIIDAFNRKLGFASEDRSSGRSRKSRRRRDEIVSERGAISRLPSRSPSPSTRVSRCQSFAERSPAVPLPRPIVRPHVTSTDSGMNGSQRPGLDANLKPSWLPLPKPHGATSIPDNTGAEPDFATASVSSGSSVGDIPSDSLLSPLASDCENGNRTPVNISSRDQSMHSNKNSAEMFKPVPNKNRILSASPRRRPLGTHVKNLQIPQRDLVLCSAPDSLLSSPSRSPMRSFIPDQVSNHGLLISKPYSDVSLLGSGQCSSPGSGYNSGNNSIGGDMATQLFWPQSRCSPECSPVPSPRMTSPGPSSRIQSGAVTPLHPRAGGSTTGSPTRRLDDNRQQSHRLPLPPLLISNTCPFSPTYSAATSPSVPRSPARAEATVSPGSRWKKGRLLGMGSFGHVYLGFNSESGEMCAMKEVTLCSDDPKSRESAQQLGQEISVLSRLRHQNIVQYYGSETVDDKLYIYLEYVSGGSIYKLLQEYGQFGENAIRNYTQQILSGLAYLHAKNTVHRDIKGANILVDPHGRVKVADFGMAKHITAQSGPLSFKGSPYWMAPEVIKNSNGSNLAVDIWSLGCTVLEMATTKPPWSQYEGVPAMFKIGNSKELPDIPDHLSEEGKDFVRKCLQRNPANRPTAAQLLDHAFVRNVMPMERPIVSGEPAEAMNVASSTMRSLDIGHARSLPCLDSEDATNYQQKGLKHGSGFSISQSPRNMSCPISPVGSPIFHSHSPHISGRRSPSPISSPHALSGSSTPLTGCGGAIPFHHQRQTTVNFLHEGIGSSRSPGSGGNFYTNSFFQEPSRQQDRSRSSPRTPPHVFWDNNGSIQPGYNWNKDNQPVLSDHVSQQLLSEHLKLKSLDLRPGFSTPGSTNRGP

[6] = biological target: BR-… KINASE2 (BSK2), two-hybrid fusion (Arabidopsis thaliana) (UniProt Q9LS26); experiment: two-hybrid
[7] = biological target: BR-… KINASE1 (BSK1), two-hybrid fusion (Arabidopsis thaliana) (UniProt Q944A7); experiment: two-hybrid

binding [1]: binds
binding [2]: binds
binding [3]: binds
binding [4]: binds
B1: HA-tagged ERECTA (ERECTA-HA) (receptor, UniProt Q42371 25-976)
chain: EEGATLLEIKKSFKDVNNVLYDWTTSPSSDYCVWRGVSCENVTFNVVALNLSDLNLDGEISPAIGDLKSLLSIDLRGNRLSGQIPDEIGDCSSLQNLDLSFNELSGDIPFSISKLKQLEQLILKNNQLIGPIPSTLSQIPNLKILDLAQNKLSGEIPRLIYWNEVLQYLGLRGNNLVGNISPDLCQLTGLWYFDVRNNSLTGSIPETIGNCTAFQVLDLSYNQLTGEIPFDIGFLQVATLSLQGNQLSGKIPSVIGLMQALAVLDLSGNLLSGSIPPILGNLTFTEKLYLHSNKLTGSIPPELGNMSKLHYLELNDNHLTGHIPPELGKLTDLFDLNVANNDLEGPIPDHLSSCTNLNSLNVHGNKFSGTIPRAFQKLESMTYLNLSSNNIKGPIPVELSRIGNLDTLDLSNNKINGIIPSSLGDLEHLLKMNLSRNHITGVVPGDFGNLRSIMEIDLSNNDISGPIPEELNQLQNIILLRLENNNLTGNVGSLANCLSLTVLNVSHNNLVGDIPKNNNFSRFSPDSFIGNPGLCGSWLNSPCHDSRRTVRVSISRAAILGIAIGGLVILLMVLIAACRPHNPPPFLDGSLDKPVTYSTPKLVILHMNMALHVYEDIMRMTENLSEKYIIGHGASSTVYKCVLKNCKPVAIKRLYSHNPQSMKQFETELEMLSSIKHRNLVSLQAYSLSHLGSLLFYDYLENGSLWDLLHGPTKKKTLDWDTRLKIAYGAAQGLAYLHHDCSPRIIHRDVKSSNILLDKDLEARLTDFGIAKSLCVSKSHTSTYVMGTIGYIDPEYARTSRLTEKSDVYSYGIVLLELLTRRKAVDDESNLHHLIMSKTGNNEVMEMADPDITSTCKDLGVVKKVFQLALLCTKRQPNDRPTMHQVTRVLGSFMLSEQPPAATDTSATLAGSCYVDEYANLKTPHSVNCSSMSASDAQLFLRFGQVISQNSE

binding [5]: no binding
binding [6]: no binding
binding [7]: no binding
B2: PUB31, two-hybrid fusion used against BSK1/2 and YODA (enzyme, UniProt Q9FHN9 1-444)
chain: T2 sequence with D151T
